Values from PubChem BioAssay AID504774 (Drosophila RNAi Screening Center, 2011)
In all, the deposit lists about 23,000 reagents; this is a random part of those that have a named target and a result. 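Values are quantile-normalised luminescence on an arbitrary scale; higher means more cells surviving MMS.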 Further read-outs or replicates are left out here.

Purpose: 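Fly genes whose loss alters survival after alkylation damage to DNA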 (primary screen)
Cells: Drosophila Kc167 cells
Reagent: long dsRNA against Drosophila genes, about 0.25 µg dsRNA per well
Duration: about 6 days: 3 days knock-down, then 3 days with or without MMS
Conditions: methyl methanesulphonate 0.004% (w/v) for 3 days after knock-down
Detection: 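ATP-dependent luminescence as a measure of live cells in MMS-exposed wells, quantile normalised within each plate, with replicate values also given as a mean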
Reading the numbers: mean viability with MMS and viability with MMS: higher = more surviving cells after MMS

Target gene	amplicon	mean viability with MMS	viability with MMS, replicate 1
CG11374	DRSC00306	3.56e6	4.01e6
CG5003	DRSC15694	3.58e6	3.99e6
CG12902	DRSC06217	3.54e6	4.00e6
CG30054	DRSC05354	3.53e6	3.94e6
CG14204	DRSC19559	3.46e6	3.93e6
CG18599	DRSC15357	3.53e6	4.06e6
CG18599	DRSC22585	2.42e6	3.54e6
CG18599	DRSC23121	3.58e6	4.03e6
CG15312	DRSC18000	3.40e6	4.09e6

An excerpt from above, showing only “mean viability with MMS”:
CG12902 [DRSC06217]	3.54e6
CG30054 [DRSC05354]	3.53e6

The list goes on.
Target gene	amplicon	mean viability with MMS	viability with MMS, replicate 1
SdhA	DRSC07547	3.60e6	4.11e6
Cul6	DRSC09830	3.46e6	3.87e6
Ctu2	DRSC02024	3.53e6	3.93e6
Vps4	DRSC19338	3.39e6	3.78e6
CG32487	DRSC21745	3.43e6	3.87e6
pasha	DRSC15295	3.50e6	4.04e6
CG11710	DRSC20485	3.56e6	4.08e6
CG13334	DRSC06369	3.47e6	4.09e6
LanA	DRSC11207	3.58e6	4.12e6
qjt	DRSC10060	3.47e6	3.94e6
ND-18	DRSC19441	3.51e6	3.97e6
Trf2	DRSC18727	3.71e6	5.06e6
TRAM	DRSC18178	3.69e6	4.25e6
TRAM	DRSC18651	3.66e6	4.23e6
H15	DRSC03339	3.46e6	3.96e6
H15	DRSC22199	3.48e6	3.96e6
Ced-12	DRSC02840	3.50e6	3.93e6
mRpL33	DRSC18319	3.66e6	4.39e6
ftz-f1	DRSC11347	3.36e6	3.71e6
